{"source": "PubChem BioAssay AID624297", "about": "(National Center for Advancing Translational Sciences (NCATS), 2012)", "note": "About 6,200 (1.8%) of roughly 340,000 compounds were called active. Inconclusive means that the source gave no clear call. Such entries were picked first, then a sample of the others. Calls follow the shape of the dose curve; as a rule, active = well fitted activation curve with a large enough effect; inconclusive = small, poorly fitted or top-dose-only effect; inactive = no such curve, though single readings can be large or run the other way. A potency beside an inconclusive call is a rough fit, not a confirmed value. Potency is read from the fitted curve at half-maximal effect.", "data": [{"assay": "A quantitative high throughput screen for small molecules that induce DNA re-replication in SW480 colon adenocarcinoma cells; also: nearly all actives have a fitted effect of over 55% in size; as to re-replication activation: % of control where 0% means no effect.", "settings": "Hoechst DNA content imaging, 48 h; re-replication activation: at 46.1 µM (top of the series) unless noted", "outline": "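Cells (250 per well) received 23 nL compound or DMSO by pin tool and were kept 48 hr at 37 C, 5% CO2. Nuclei were then stained with Hoechst for 40 min and scanned for DNA content.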", "values": [{"smiles": "CCCCCCCCCCn1c2c(c(=N)c3c1CCC3)CCC2", "Potency": "inconclusive: 12.6 µM [activator, partial curve]"}, {"smiles": "CC(C)c1nnc(NC(=O)c2nc(S(=O)(=O)Cc3ccc(F)cc3)ncc2Cl)s1", "Potency": "active: 1.3 µM"}, {"smiles": "CC(Sc1ccc2ccccc2c1)C(=O)NC(N)=O", "note": "(stereo not given)", "re-replication activation": "inactive: 2.31%"}, {"smiles": "COCCCN1C(=O)C(=O)/C(=C(/O)c2ccc(S(=O)(=O)N3CCOCC3)cc2)C1c1ccc(OC)cc1", "note": "(stereo not given)", "Potency": "inconclusive: 3.55 µM [activator, single point]"}, {"smiles": "O=C(NCCc1ccccn1)c1cc(-c2ccccc2Cl)nc2ccccc12", "re-replication activation": "inactive: 1.24%"}, {"smiles": "O=C(Nc1ccc(O)cc1)c1ccc(NC(=O)c2cccs2)cc1", "re-replication activation": "inactive: -10.1%"}, {"smiles": "CCOc1ccc(/C(O)=C2/C(=O)C(=O)N(CCCN3CCOCC3)C2c2ccc(C)cc2)cc1C", "note": "(stereo not given)", "Potency": "inconclusive: 18.4 µM [activator, single point]"}, {"smiles": "Cc1ccc(CNC(=O)[C@H]2C[C@@H]2[C@H](NP(=O)(c2ccccc2)c2ccccc2)c2ccccc2)o1", "Potency": "inconclusive: 0.92 µM [activator, full curve, poor fit]"}, {"smiles": "CCOc1ccc(CCNC(=O)CCNS(=O)(=O)c2ccc3c(c2)CCN3C(C)=O)cc1OCC", "Potency": "inconclusive: 6.51 µM [activator, single point]"}, {"smiles": "CC(C)(Sc1cc(C(C)(C)C)c(O)c(C(C)(C)C)c1)Sc1cc(C(C)(C)C)c(O)c(C(C)(C)C)c1", "Potency": "inactive"}, {"smiles": "CCn1c(SCC(=O)N/N=C/c2c[nH]c3ccccc23)nnc1-c1ccc(Cl)cc1", "Potency": "inconclusive: 13 µM [activator, partial curve, poor fit]"}, {"smiles": "CCOC(=O)C1CCN(C(=O)COc2ccc(S(=O)(=O)N3CCOCC3)cc2C)CC1", "re-replication activation": "inactive: 0%"}, {"smiles": "CCOc1ccc2nc(SC3CC(=O)N(c4ccc(OC)cc4OC)C3=O)sc2c1", "note": "(stereo not given)", "Potency": "inconclusive: 20.6 µM [activator, single point]"}, {"smiles": "O=C(/C=C/c1ccco1)Nc1nnc(-c2ccco2)s1", "Potency": "inconclusive: 25.9 µM [activator, single point]"}, {"smiles": "O=C(/C=C/c1ccccc1Cl)c1cccnc1", "Potency": "inconclusive: 3.26 µM [activator, partial curve, poor fit]"}, {"smiles": "c1ccc(Cn2nnc3c(N4CCc5ccccc5C4)ncnc32)cc1", "re-replication activation": "inactive: 3.93%"}, {"smiles": "CCOC(=O)C1(CC2CC2)CCN(Cc2cnc(-c3ccccc3C)nc2)CC1", "re-replication activation": "inactive: 27.6%"}, {"smiles": "COc1ccc(NC(=O)CCNC(=O)c2ccc([N+](=O)[O-])cc2)cc1S(=O)(=O)N1CCCCC1", "re-replication activation": "inactive: 0.0546%"}, {"smiles": "CC1CCc2c(sc(NC(=O)C3=COCCO3)c2C(N)=O)C1", "note": "(stereo not given)", "re-replication activation": "inactive: -0.483%"}, {"smiles": "Cc1cccc(C)c1OCc1nnc(SCC(=O)NCc2ccccc2)o1", "Potency": "inconclusive: 20.6 µM [activator, single point]"}]}]}
